The values that follow come from ChEMBL document CHEMBL4808148, “HDAC6 screening dataset using tau-based substrate in an enzymatic assay yields selective inhibitors and activators” (2021).

The strong results were mostly taken out for another list; the other results follow.

This test addresses T1, Protein deacetylase HDAC6 (Homo sapiens) (UniProt Q9UBN7).
T1 sequence (whole entry): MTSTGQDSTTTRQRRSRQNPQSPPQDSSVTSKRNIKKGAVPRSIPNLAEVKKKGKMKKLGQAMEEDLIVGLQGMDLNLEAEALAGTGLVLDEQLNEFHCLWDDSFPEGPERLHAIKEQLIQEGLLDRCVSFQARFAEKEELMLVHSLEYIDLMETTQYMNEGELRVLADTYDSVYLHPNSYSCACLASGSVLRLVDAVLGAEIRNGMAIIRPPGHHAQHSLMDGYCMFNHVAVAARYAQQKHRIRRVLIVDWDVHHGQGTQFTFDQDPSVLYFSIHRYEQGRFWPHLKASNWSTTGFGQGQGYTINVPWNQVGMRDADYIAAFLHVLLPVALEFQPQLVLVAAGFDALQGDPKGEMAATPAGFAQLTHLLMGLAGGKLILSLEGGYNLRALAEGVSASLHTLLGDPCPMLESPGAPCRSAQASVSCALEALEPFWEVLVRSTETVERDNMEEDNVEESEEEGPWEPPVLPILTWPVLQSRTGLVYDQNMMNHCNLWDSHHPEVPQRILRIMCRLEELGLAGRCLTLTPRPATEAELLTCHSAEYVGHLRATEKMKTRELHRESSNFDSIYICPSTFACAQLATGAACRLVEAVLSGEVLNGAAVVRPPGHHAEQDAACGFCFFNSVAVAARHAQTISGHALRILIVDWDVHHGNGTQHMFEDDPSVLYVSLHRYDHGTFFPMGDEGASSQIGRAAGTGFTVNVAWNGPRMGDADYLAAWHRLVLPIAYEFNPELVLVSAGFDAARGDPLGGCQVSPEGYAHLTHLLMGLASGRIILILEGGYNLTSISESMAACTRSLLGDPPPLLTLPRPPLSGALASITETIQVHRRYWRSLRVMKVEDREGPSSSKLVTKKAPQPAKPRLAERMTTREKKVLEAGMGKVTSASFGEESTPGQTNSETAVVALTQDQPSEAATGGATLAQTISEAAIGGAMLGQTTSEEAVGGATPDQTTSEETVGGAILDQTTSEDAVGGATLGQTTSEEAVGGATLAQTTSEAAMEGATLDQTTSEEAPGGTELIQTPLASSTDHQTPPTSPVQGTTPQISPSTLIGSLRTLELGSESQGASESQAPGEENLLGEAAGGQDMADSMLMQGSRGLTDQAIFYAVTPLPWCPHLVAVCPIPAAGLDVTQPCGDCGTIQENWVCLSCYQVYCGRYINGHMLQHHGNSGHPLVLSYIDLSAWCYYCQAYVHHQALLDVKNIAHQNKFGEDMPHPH
As to conditions: at 10 µM.
In general, inhibition refers to the relative decrease from the control value, in per cent. A high value points to strong suppression. Compound `COc1cc(N2CCN(C(C)=O)CC2)ccc1Nc1ncc(Cl)c(Nc2ccc(N3CCN(C(C)=O)CC3)cc2OC)n1` displayed an inhibition of 10.8%.
